{
  "source": "PubChem BioAssay AID1487",
  "about": "(National Center for Advancing Translational Sciences (NCATS), 2009)",
  "test": "qHTS Assay for Modulators of Lamin A Splicing",
  "details": "HeLa LMNA splicing GFP/RFP minigene ratio, 48 h",
  "summary_of_the_method": "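Read-out is the ratio of GFP to DsRed2 object intensity, acquired by 488 nm laser-scanning cytometry on HeLa lamin A-EGFP minigene reporter cells. Compound incubation 48 hrs at 37 °C in Opti-MEM with 2% FBS; DMSO 0.5% final.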",
  "key": {"[1]": {"details": "measured here: RFP viability control channel"}, "[2]": {"details": "measured here: GFP splicing reporter channel"}},
  "note": "The other results are listed elsewhere or left out. Shown are side measurements of this screen, not its main read-out; they come without a call. The list favours compounds with an active or inconclusive main result. Potencies come from curve fits of mixed quality, noted in brackets.",
  "data": [
    {"smiles": "COc1cccc(-n2sc3c(c2=S)-c2cc(OC)ccc2NC3(C)C)c1", "values": [
      {"measurement": "AC50", "setting": "[1]", "result": "0.0126 µM [falling, full curve]"}
    ]},
    {"smiles": "CC(O)C(N)C(=O)O", "note": "(stereo not given)", "values": [
      {"measurement": "AC50", "setting": "[1]", "result": "35.5 µM [rising, single point]"}
    ]},
    {"smiles": "CC[n+]1c(S(=O)(=O)[O-])ccc2ccc(C)cc21", "values": [
      {"measurement": "AC50", "setting": "[1]", "result": "0.2 µM [falling, full curve, poor fit]"}
    ]},
    {"smiles": "NC(=O)C1CCN(S(=O)(=O)Cc2ccccc2Cl)CC1", "values": [
      {"measurement": "AC50", "setting": "[2]", "result": "14.1 µM [falling, partial curve, poor fit]"},
      {"measurement": "AC50", "setting": "[1]", "result": "5.01 µM [falling, partial curve]"}
    ]},
    {"smiles": "Cc1cnc(NC(=O)c2cc3c(s2)CCCC3)s1", "values": [
      {"measurement": "AC50", "setting": "[2]", "result": "14.1 µM [rising, single point]"},
      {"measurement": "AC50", "setting": "[1]", "result": "14.1 µM [rising, single point]"}
    ]},
    {"smiles": "COCC(=O)NNC(=O)c1ccccc1OC", "values": [
      {"measurement": "AC50", "setting": "[1]", "result": "17.8 µM [rising, single point]"}
    ]},
    {"smiles": "CN1CCC(=C2c3ccccc3CCc3sccc32)CC1", "values": [
      {"measurement": "AC50", "setting": "[2]", "result": "0.00316 µM [falling, full curve, poor fit]"},
      {"measurement": "AC50", "setting": "[1]", "result": "14.1 µM [falling, partial curve, poor fit]"}
    ]},
    {"smiles": "CC1CCC(N2CC(=O)N(C3CCCCC3)C(c3ccc(Cl)cc3)C2=O)CC1", "note": "(stereo not given)", "values": [
      {"measurement": "AC50", "setting": "[2]", "result": "0.501 µM [rising, full curve, poor fit]"},
      {"measurement": "AC50", "setting": "[1]", "result": "0.562 µM [rising, full curve, poor fit]"}
    ]},
    {"smiles": "CCc1ccc(OCCCOc2ccc(C=O)cc2)cc1", "values": [
      {"measurement": "AC50", "setting": "[2]", "result": "7.08 µM [rising, partial curve]"},
      {"measurement": "AC50", "setting": "[1]", "result": "7.08 µM [rising, partial curve]"}
    ]},
    {"smiles": "COc1cccc(C(=O)Nc2nc3ccc(S(=O)(=O)N4CCCC4)cc3s2)c1", "values": [
      {"measurement": "AC50", "setting": "[2]", "result": "1.12 µM [rising, full curve]"},
      {"measurement": "AC50", "setting": "[1]", "result": "1.58 µM [rising, partial curve, poor fit]"}
    ]},
    {"smiles": "Brc1ccc(C2CC(c3ccccc3)=Nc3ccccc3N2)cc1", "note": "(stereo not given)", "values": [
      {"measurement": "AC50", "setting": "[1]", "result": "12.6 µM [rising, single point]"}
    ]},
    {"smiles": "Cc1ccc(NS(=O)(=O)c2ccc(-c3cnc(C4CC4)o3)cc2)cc1N(C)C", "values": [
      {"measurement": "AC50", "setting": "[1]", "result": "1.58 µM [rising, full curve]"}
    ]},
    {"smiles": "CCOC(=O)c1nn(-c2cccc(C)c2)c2nc(-c3ccccc3)c(C#N)c(=O)n12", "values": [
      {"measurement": "AC50", "setting": "[2]", "result": "35.5 µM [rising, single point]"}
    ]},
    {"smiles": "CCOc1ccccc1CNC(=O)CCc1c(C)nn(-c2ccc(N3CCCCC3)nn2)c1C", "values": [
      {"measurement": "AC50", "setting": "[2]", "result": "14.1 µM [falling, single point]"}
    ]},
    {"smiles": "CC(C)(C)C1CCc2onc(C(=O)NCc3ccc(F)cc3)c2C1", "note": "(stereo not given)", "values": [
      {"measurement": "AC50", "setting": "[2]", "result": "12.6 µM [rising, partial curve, poor fit]"},
      {"measurement": "AC50", "setting": "[1]", "result": "15.8 µM [rising, single point]"}
    ]},
    {"smiles": "O=C(COc1ccc(NC(=O)c2ccccc2[N+](=O)[O-])cc1)c1ccc(F)cc1", "values": [
      {"measurement": "AC50", "setting": "[2]", "result": "3.16 µM [rising, single point]"},
      {"measurement": "AC50", "setting": "[1]", "result": "0.0708 µM [falling, full curve, poor fit]"}
    ]},
    {"smiles": "Cc1ccccc1NC(=O)c1cn(-c2ccccc2)nc1-c1ccccc1", "values": [
      {"measurement": "AC50", "setting": "[1]", "result": "10 µM [rising, partial curve, poor fit]"}
    ]},
    {"smiles": "Cc1cnc(CNc2ncnc3ccc(-c4ccccc4Cl)cc23)cn1", "values": [
      {"measurement": "AC50", "setting": "[1]", "result": "12.6 µM [falling, single point]"}
    ]},
    {"smiles": "COc1cc(C(=S)N2CCOCC2)ccc1OS(=O)(=O)c1ccc(NC(C)=O)cc1", "values": [
      {"measurement": "AC50", "setting": "[1]", "result": "7.94 µM [rising, partial curve]"}
    ]},
    {"smiles": "CCN(CCCNC(=O)CC(C(=O)N1CCc2ccccc21)n1ccnc1)c1cccc(C)c1", "note": "(stereo not given)", "values": [
      {"measurement": "AC50", "setting": "[2]", "result": "14.1 µM [rising, single point]"},
      {"measurement": "AC50", "setting": "[1]", "result": "22.4 µM [rising, single point]"}
    ]},
    {"smiles": "COc1cc(/C=C/c2nc(N)nc(-c3ccccc3O)n2)cc(OC)c1OC", "values": [
      {"measurement": "AC50", "setting": "[1]", "result": "12.6 µM [rising, partial curve]"}
    ]},
    {"smiles": "Cc1cc(NC(=O)CN2C(=O)NC3(CCCCC3C)C2=O)no1", "note": "(stereo not given)", "values": [
      {"measurement": "AC50", "setting": "[1]", "result": "0.0316 µM [falling, full curve, poor fit]"}
    ]},
    {"smiles": "O=[N+]([O-])c1nn(-c2ccc3c(c2)OCCO3)n(O)c1=NCCC1=CCCCC1", "values": [
      {"measurement": "AC50", "setting": "[2]", "result": "10 µM [rising, partial curve]"}
    ]},
    {"smiles": "Cc1ccc(SCCC(=O)NCc2ccncc2)cc1", "values": [
      {"measurement": "AC50", "setting": "[1]", "result": "39.8 µM [falling, partial curve, poor fit]"}
    ]},
    {"smiles": "CC(=O)Nc1c(C)nn(-c2ccccc2)c1N1CCC(C(=O)NCc2cccc(Cl)c2)CC1", "values": [
      {"measurement": "AC50", "setting": "[2]", "result": "3.16 µM [rising, full curve, poor fit]"}
    ]},
    {"smiles": "Cc1ccc(/C=C(\\C#N)c2nc3ccccc3[nH]2)s1", "values": [
      {"measurement": "AC50", "setting": "[1]", "result": "31.6 µM [rising, single point]"}
    ]},
    {"smiles": "COC(=O)C1Cc2ccccc2CN1C(=O)CCl", "note": "(stereo not given)", "values": [
      {"measurement": "AC50", "setting": "[1]", "result": "35.5 µM [falling, single point]"}
    ]},
    {"smiles": "O=C(CSc1nc2cc3ccccc3cc2[nH]1)Nc1ccc(F)cc1", "values": [
      {"measurement": "AC50", "setting": "[2]", "result": "8.91 µM [rising, partial curve]"},
      {"measurement": "AC50", "setting": "[1]", "result": "11.2 µM [rising, partial curve]"}
    ]},
    {"smiles": "CC(Cc1cccs1)NC(=S)Nc1ccc(Cl)c(Cl)c1", "note": "(stereo not given)", "values": [
      {"measurement": "AC50", "setting": "[2]", "result": "35.5 µM [rising, single point]"},
      {"measurement": "AC50", "setting": "[1]", "result": "35.5 µM [rising, single point]"}
    ]},
    {"smiles": "Cc1onc(-c2ccccc2Cl)c1C(=O)N1CCN(c2nc3ccccc3s2)CC1", "values": [
      {"measurement": "AC50", "setting": "[2]", "result": "8.91 µM [rising, partial curve]"},
      {"measurement": "AC50", "setting": "[1]", "result": "6.31 µM [rising, partial curve]"}
    ]},
    {"smiles": "OCC[n+]1ccc(/C=C/c2c[nH]c3ccccc23)cc1", "values": [
      {"measurement": "AC50", "setting": "[1]", "result": "15.8 µM [rising, single point]"}
    ]},
    {"smiles": "COC(=O)c1ccc(COc2cccc3c2CCN(Cc2cccc(C)c2)C3=O)o1", "values": [
      {"measurement": "AC50", "setting": "[1]", "result": "17.8 µM [rising, single point]"}
    ]},
    {"smiles": "COc1ccc(NS(=O)(=O)c2cc(C)ccc2C)cc1", "values": [
      {"measurement": "AC50", "setting": "[1]", "result": "20 µM [rising, single point]"}
    ]},
    {"smiles": "Cc1cc(C)nc(/N=C(\\N)N2CCCCC2)n1", "values": [
      {"measurement": "AC50", "setting": "[1]", "result": "2.24 µM [falling, full curve, poor fit]"}
    ]},
    {"smiles": "CC1CCc2onc(C(=O)N3CCN(c4ccc(F)cc4)CC3)c2C1", "note": "(stereo not given)", "values": [
      {"measurement": "AC50", "setting": "[1]", "result": "0.0282 µM [falling, full curve, poor fit]"}
    ]},
    {"smiles": "CCCN(CCC)C(=O)c1cc(-c2ccc3c(c2)OCO3)nc2ccccc12", "values": [
      {"measurement": "AC50", "setting": "[2]", "result": "22.4 µM [rising, single point]"},
      {"measurement": "AC50", "setting": "[1]", "result": "22.4 µM [rising, single point]"}
    ]},
    {"smiles": "Cc1sc2nc(C3CC3)nc(SCC(=O)NCc3ccco3)c2c1C", "values": [
      {"measurement": "AC50", "setting": "[2]", "result": "11.2 µM [rising, partial curve]"}
    ]}
  ]
}
